Assay [1] addresses eIF4E (human (endogenous in HeLa)) (UniProt P06730). The experiment in a line: co-IP; anti-CBP80 or anti-eIF4E antibody on protein G magnetic beads, HeLa lysates in RNA IP lysis buffer (0.1% NP-40, 150 mM NaCl, 20 mM Tris-HCl pH 7.5, RNasin), 3 h at 4°C; western blot. On the technique in general: In western blotting, separated proteins are transferred to a membrane and probed.
In assay [2] the target is T1, SBP-GFP-UPF1-(610–914) (pEFh-SBP-GFP-hUPF1-(610–914)) (human) (UniProt Q92900).
T1 sequence: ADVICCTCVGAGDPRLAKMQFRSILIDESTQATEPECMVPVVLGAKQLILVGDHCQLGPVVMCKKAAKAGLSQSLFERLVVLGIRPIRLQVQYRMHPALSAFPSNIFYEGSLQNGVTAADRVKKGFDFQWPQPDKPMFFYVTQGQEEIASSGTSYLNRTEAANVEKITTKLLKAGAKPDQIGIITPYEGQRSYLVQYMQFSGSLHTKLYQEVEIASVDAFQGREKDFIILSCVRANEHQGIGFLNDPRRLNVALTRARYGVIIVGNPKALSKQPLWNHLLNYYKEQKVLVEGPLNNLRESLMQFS
As to the kind of experiment: co-IP; anti-GFP antibody on protein G magnetic beads, lysates of transfected HeLa cells (0.1% NP-40, 150 mM NaCl, 10 mM Tris-HCl pH 8.0), 3 h at 4°C; GFP-UPF1 fragments precipitated.

Chains of the proteins cited; added tags and fusions are not shown.
UniProt P06730: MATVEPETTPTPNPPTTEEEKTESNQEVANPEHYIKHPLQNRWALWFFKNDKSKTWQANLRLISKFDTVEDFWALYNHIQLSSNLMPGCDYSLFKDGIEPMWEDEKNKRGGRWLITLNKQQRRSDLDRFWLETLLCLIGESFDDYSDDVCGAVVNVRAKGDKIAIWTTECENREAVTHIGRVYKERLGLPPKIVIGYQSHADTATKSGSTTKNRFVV

For assay [3], the target named is T2, Flag-Regnase-1 K257A/R258A (KRAA) mutant (mouse) (UniProt Q5D1E7).
T2 sequence: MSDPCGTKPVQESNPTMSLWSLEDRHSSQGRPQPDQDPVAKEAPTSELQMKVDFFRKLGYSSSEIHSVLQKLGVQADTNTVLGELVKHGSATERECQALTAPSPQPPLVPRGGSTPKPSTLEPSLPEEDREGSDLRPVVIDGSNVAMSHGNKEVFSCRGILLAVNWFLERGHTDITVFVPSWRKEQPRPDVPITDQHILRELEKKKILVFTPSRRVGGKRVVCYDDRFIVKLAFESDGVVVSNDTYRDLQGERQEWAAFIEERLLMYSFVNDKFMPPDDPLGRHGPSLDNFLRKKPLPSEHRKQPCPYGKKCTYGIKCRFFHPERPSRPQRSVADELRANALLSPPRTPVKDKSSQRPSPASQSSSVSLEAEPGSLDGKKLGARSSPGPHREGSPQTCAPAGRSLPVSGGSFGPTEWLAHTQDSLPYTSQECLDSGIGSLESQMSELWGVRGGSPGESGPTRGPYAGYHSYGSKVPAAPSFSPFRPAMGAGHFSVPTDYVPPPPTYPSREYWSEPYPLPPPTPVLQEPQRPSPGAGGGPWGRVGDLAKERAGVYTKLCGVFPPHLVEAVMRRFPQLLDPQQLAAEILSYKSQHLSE
The experiment in a line: co-IP; anti-Flag antibody on protein G magnetic beads, lysates of transfected HeLa cells (0.1% NP-40, 150 mM NaCl, 10 mM Tris-HCl pH 8.0), 3 h at 4°C; Flag-Regnase-1 precipitated, UPF1 constructs blotted; λ protein phosphatase treatment of lysates and SMG1 knockdown are said to reduce or inhibit the association.

In the next assay the target is T3, Flag-Regnase-1 (mouse) (UniProt Q5D1E7).
T3 sequence: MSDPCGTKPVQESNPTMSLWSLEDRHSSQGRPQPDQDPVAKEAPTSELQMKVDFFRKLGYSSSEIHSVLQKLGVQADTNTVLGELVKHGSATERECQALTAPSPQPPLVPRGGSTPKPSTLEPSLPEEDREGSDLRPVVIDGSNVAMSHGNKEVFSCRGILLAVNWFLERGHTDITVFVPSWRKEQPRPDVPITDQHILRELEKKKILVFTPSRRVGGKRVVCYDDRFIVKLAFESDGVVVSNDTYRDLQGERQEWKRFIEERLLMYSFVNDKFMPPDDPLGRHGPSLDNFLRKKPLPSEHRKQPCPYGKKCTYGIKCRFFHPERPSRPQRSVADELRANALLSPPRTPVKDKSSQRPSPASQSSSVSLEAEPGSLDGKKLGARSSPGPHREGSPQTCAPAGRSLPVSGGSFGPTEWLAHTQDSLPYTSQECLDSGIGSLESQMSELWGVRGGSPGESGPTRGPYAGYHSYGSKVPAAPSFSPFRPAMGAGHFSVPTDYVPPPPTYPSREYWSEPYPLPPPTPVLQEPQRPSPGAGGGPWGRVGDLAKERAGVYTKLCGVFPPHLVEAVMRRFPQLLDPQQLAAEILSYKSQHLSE
The description is as above.

Results are given in words; binding and its absence hold for the method and conditions named. Binding seen in cells or lysates may run through a third protein. Some binding calls cover weakened binding; strength is not graded here. Sequences can lack the tags named with a protein.

B1: Flag-Regnase-1 (protein, UniProt Q5D1E7 1-596)
chain: MSDPCGTKPVQESNPTMSLWSLEDRHSSQGRPQPDQDPVAKEAPTSELQMKVDFFRKLGYSSSEIHSVLQKLGVQADTNTVLGELVKHGSATERECQALTAPSPQPPLVPRGGSTPKPSTLEPSLPEEDREGSDLRPVVIDGSNVAMSHGNKEVFSCRGILLAVNWFLERGHTDITVFVPSWRKEQPRPDVPITDQHILRELEKKKILVFTPSRRVGGKRVVCYDDRFIVKLAFESDGVVVSNDTYRDLQGERQEWKRFIEERLLMYSFVNDKFMPPDDPLGRHGPSLDNFLRKKPLPSEHRKQPCPYGKKCTYGIKCRFFHPERPSRPQRSVADELRANALLSPPRTPVKDKSSQRPSPASQSSSVSLEAEPGSLDGKKLGARSSPGPHREGSPQTCAPAGRSLPVSGGSFGPTEWLAHTQDSLPYTSQECLDSGIGSLESQMSELWGVRGGSPGESGPTRGPYAGYHSYGSKVPAAPSFSPFRPAMGAGHFSVPTDYVPPPPTYPSREYWSEPYPLPPPTPVLQEPQRPSPGAGGGPWGRVGDLAKERAGVYTKLCGVFPPHLVEAVMRRFPQLLDPQQLAAEILSYKSQHLSE
For B1, the results for the binding result in assay [1] and in assay [2] were “no binding” and “binds”, respectively.

B2: HA-UPF1 wild type (pSR-HA-hUPF1-WT, amino acids 6–1118) (protein, UniProt Q92900-2 6-1118)
chain: YGPSSQTLTFLDTEEAELLGADTQGSEFEFTDFTLPSQTQTPPGGPGGPGGGGAGGPGGAGAGAAAGQLDAQVGPEGILQNGAVDDSVAKTSQLLAELNFEEDEEDTYYTKDLPIHACSYCGIHDPACVVYCNTSKKWFCNGRGNTSGSHIVNHLVRAKCKEVTLHKDGPLGETVLECYNCGCRNVFLLGFIPAKADSVVVLLCRQPCASQSSLKDINWDSSQWQPLIQDRCFLSWLVKIPSEQEQLRARQITAQQINKLEELWKENPSATLEDLEKPGVDEEPQHVLLRYEDAYQYQNIFGPLVKLEADYDKKLKESQTQDNITVRWDLGLNKKRIAYFTLPKTDSDMRLMQGDEICLRYKGDLAPLWKGIGHVIKVPDNYGDEIAIELRSSVGAPVEVTHNFQVDFVWKSTSFDRMQSALKTFAVDETSVSGYIYHKLLGHEVEDVIIKCQLPKRFTAQGLPDLNHSQVYAVKTVLQRPLSLIQGPPGTGKTVTSATIVYHLARQGNGPVLVCAPSNIAVDQLTEKIHQTGLKVVRLCAKSREAIDSPVSFLALHNQIRNMDSMPELQKLQQLKDETGELSSADEKRYRALKRTAERELLMNADVICCTCVGAGDPRLAKMQFRSILIDESTQATEPECMVPVVLGAKQLILVGDHCQLGPVVMCKKAAKAGLSQSLFERLVVLGIRPIRLQVQYRMHPALSAFPSNIFYEGSLQNGVTAADRVKKGFDFQWPQPDKPMFFYVTQGQEEIASSGTSYLNRTEAANVEKITTKLLKAGAKPDQIGIITPYEGQRSYLVQYMQFSGSLHTKLYQEVEIASVDAFQGREKDFIILSCVRANEHQGIGFLNDPRRLNVALTRARYGVIIVGNPKALSKQPLWNHLLNYYKEQKVLVEGPLNNLRESLMQFSKPRKLVNTINPGARFMTTAMYDAREAIIPGSVYDRSSQGRPSSMYFQTHDQIGMISAGPSHVAAMNIPIPFNLVMPPMPPPGYFGQANGPAAGRGTPKGKTGRGGRQKNRFGLPGPSQTNLPNSQASQDVASQPFSQGALTQGYISMSQPSQMSQPGLSQPELSQDSYLGDEFKSQIDVALSQDSTYQGERAYQHGGVTGLSQY
As for B2, the binding entry in assay [3] was “no binding”; in the assay with Flag-Regnase-1 (mouse), “binds”.

Values taken from article PMC7145602.
